According to patent US6562837B1, “Use of tetrahydroisoquinoline compounds for the treatment of septicemia” (Korea Institute of Science & Technology, priority 1998, dated 2003):
Some results were stated once for a whole list of compounds, not compound by compound.

Tested on: LPS-caused death
Experiment: Preventive effect on LPS-caused death in mice
Type: in vivo
Conditions: 20 mg/kg i.p. 30 min before LPS (20 mg/kg i.p.); LPS only about 20%
Experimental: When a large quantity of LPS is injected into animals, various diseases, such as DIC, are generated and they are dead of septic shock in a short period of time. In this experiment, LPS (20 mg/kg) was intraperitoneally injected into mice and the number of mice which were alive for 48 hours after the injection, was counted. Also, an examination was made of the influence of test drugs on the survival ratio.
LPS (20 mg/kg) was administered to mice by injection (i.p.), after which the mice alive were countered every 6 hours for 48 hours. 30 min before LPS injection, test drugs were intraperitoneally injected into the mice to examine the preventive effect on the LPS-caused death.

SMILES	mice alive after 48 hours [%]
Oc1cc2c(cc1O)C(Cc1cccc3ccccc13)NCC2 (stereo not drawn) [Compound 1, 1-α-naphthylmethyl-6,7-dihydroxy-1,2,3,4-tetrahydroisoquinoline]	≥ 90
Oc1cc2c(cc1O)C(Cc1ccc3ccccc3c1)NCC2 (stereo not drawn) [Compound 2, 1-β-naphthylmethyl-6,7-dihydroxy-1,2,3,4-tetrahydroisoquinoline]	≥ 90
